Experimental data: PubChem BioAssay AID1508597 (Cure First, 2020)
Aim: 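Knock-downs altering ovarian cancer cell survival with or without PARP inhibitor rucaparib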 (primary screen). Cells: human ovarian carcinoma lines grown from tumours: OCI-P5x (papillary serous) and OCI-C5x (clear cell). Reagent: siRNA pool against human genes, 1.25 pmol siRNA per well. Timing: 72 h or 96 h, depending on the cell culture. Conditions: rucaparib 20 µM (about IC30) or vehicle, present until read-out. Read-out: 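Luminescent ATP-based viability assay read 72 or 96 h after transfection, depending on culture, given as normalised percent viability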. Direction: viability, normalised: higher = more viable cells remaining. Hit rule: 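a well counts as a hit if its normalised viability is under 80 percent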. Calls: active = viability under 80%; inactive = viability 80% or more.
The deposit covers about 2,100 reagents; below is an unselected part. 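Calls flag viability under 80% in either arm, not effects specific to rucaparib; the reference for percent is not stated.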 A reagent listed more than once was tested more than once; the source does not tell the runs apart. Not stated in the record: the 100% reference.

RAD18, rucaparib or vehicle Rucaparib, cell line OCI-C5x (clear cell), technical replicate 1 showed viability, normalised (%) = 33.6; active.
RAD18, rucaparib or vehicle Rucaparib, cell line OCI-C5x (clear cell), technical replicate 1 scored viability, normalised (%) = 65.2; active.
RAD18, rucaparib or vehicle Rucaparib, cell line OCI-C5x (clear cell), technical replicate 2 showed viability, normalised (%) = 54.7; active.
RAD18, rucaparib or vehicle Rucaparib, cell line OCI-C5x (clear cell), technical replicate 2 showed viability, normalised (%) = 48.7; active.
RAD18, rucaparib or vehicle Rucaparib, cell line OCI-C5x (clear cell), technical replicate 3 gave viability, normalised (%) = 46.4; active.
For RAD18, rucaparib or vehicle Rucaparib, cell line OCI-C5x (clear cell), technical replicate 3, the values are viability, normalised (%) = 48; active.
RAD18, rucaparib or vehicle Rucaparib, cell line OCI-P5x (serous), technical replicate 1 showed viability, normalised (%) = 51.2; active.
For RAD18, rucaparib or vehicle Rucaparib, cell line OCI-P5x (serous), technical replicate 1, the values are viability, normalised (%) = 74.9; active.
RAD18, rucaparib or vehicle Rucaparib, cell line OCI-P5x (serous), technical replicate 2 showed viability, normalised (%) = 42.6; active.
With RAD18, rucaparib or vehicle Rucaparib, cell line OCI-P5x (serous), technical replicate 2, the entry reads viability, normalised (%) = 62.9; active.
With RAD18, rucaparib or vehicle Rucaparib, cell line OCI-P5x (serous), technical replicate 3 the deposit lists viability, normalised (%) = 46.1; active.
For RAD18, rucaparib or vehicle Rucaparib, cell line OCI-P5x (serous), technical replicate 3, the entry reads viability, normalised (%) = 73; active.
For RAD18, rucaparib or vehicle Vehicle, cell line OCI-C5x (clear cell), technical replicate 1 the deposit lists viability, normalised (%) = 62.5; active.
For RAD18, rucaparib or vehicle Vehicle, cell line OCI-C5x (clear cell), technical replicate 1, the values are viability, normalised (%) = 79.6; active.
With RAD18, rucaparib or vehicle Vehicle, cell line OCI-C5x (clear cell), technical replicate 2, the entry reads viability, normalised (%) = 50.2; active.
RAD18, rucaparib or vehicle Vehicle, cell line OCI-C5x (clear cell), technical replicate 2 gave viability, normalised (%) = 69.4; active.
RAD18, rucaparib or vehicle Vehicle, cell line OCI-C5x (clear cell), technical replicate 3 gave viability, normalised (%) = 42.9; active.
RAD18, rucaparib or vehicle Vehicle, cell line OCI-C5x (clear cell), technical replicate 3 gave viability, normalised (%) = 68.9; active.
For RAD18, rucaparib or vehicle Vehicle, cell line OCI-P5x (serous), technical replicate 1, the entry reads viability, normalised (%) = 46.5; active.
RAD18, rucaparib or vehicle Vehicle, cell line OCI-P5x (serous), technical replicate 1 scored viability, normalised (%) = 48.8; active.
RAD18, rucaparib or vehicle Vehicle, cell line OCI-P5x (serous), technical replicate 2 gave viability, normalised (%) = 50.3; active.
RAD18, rucaparib or vehicle Vehicle, cell line OCI-P5x (serous), technical replicate 2 scored viability, normalised (%) = 45.4; active.
For RAD18, rucaparib or vehicle Vehicle, cell line OCI-P5x (serous), technical replicate 3 the deposit lists viability, normalised (%) = 69.5; active.
RAD18, rucaparib or vehicle Vehicle, cell line OCI-P5x (serous), technical replicate 3 gave viability, normalised (%) = 43.7; active.

4 neighbouring records from above, for reference:
RAD18, rucaparib or vehicle Vehicle, cell line OCI-C5x (clear cell), technical replicate 3 → viability, normalised (%) = 68.9; activity call = active
RAD18, rucaparib or vehicle Vehicle, cell line OCI-P5x (serous), technical replicate 1 → viability, normalised (%) = 46.5; activity call = active
RAD18, rucaparib or vehicle Vehicle, cell line OCI-P5x (serous), technical replicate 1 → viability, normalised (%) = 48.8; activity call = active
RAD18, rucaparib or vehicle Vehicle, cell line OCI-P5x (serous), technical replicate 2 → viability, normalised (%) = 50.3; activity call = active

The results go on:
With DDX60L, rucaparib or vehicle Rucaparib, cell line OCI-C5x (clear cell), technical replicate 1 the deposit lists viability, normalised (%) = 71.1; active.
With DDX60L, rucaparib or vehicle Rucaparib, cell line OCI-C5x (clear cell), technical replicate 2, the entry reads viability, normalised (%) = 55.7; active.
With DDX60L, rucaparib or vehicle Rucaparib, cell line OCI-C5x (clear cell), technical replicate 3, the entry reads viability, normalised (%) = 48.7; active.
For DDX60L, rucaparib or vehicle Rucaparib, cell line OCI-P5x (serous), technical replicate 1, the values are viability, normalised (%) = 56.2; active.
DDX60L, rucaparib or vehicle Rucaparib, cell line OCI-P5x (serous), technical replicate 2 scored viability, normalised (%) = 57.4; active.
DDX60L, rucaparib or vehicle Rucaparib, cell line OCI-P5x (serous), technical replicate 3 showed viability, normalised (%) = 54.7; active.
DDX60L, rucaparib or vehicle Vehicle, cell line OCI-C5x (clear cell), technical replicate 1 scored viability, normalised (%) = 45.8; active.
For DDX60L, rucaparib or vehicle Vehicle, cell line OCI-C5x (clear cell), technical replicate 2 the deposit lists viability, normalised (%) = 50.5; active.
DDX60L, rucaparib or vehicle Vehicle, cell line OCI-C5x (clear cell), technical replicate 3 scored viability, normalised (%) = 39.6; active.
For DDX60L, rucaparib or vehicle Vehicle, cell line OCI-P5x (serous), technical replicate 1, the values are viability, normalised (%) = 59.5; active.
For DDX60L, rucaparib or vehicle Vehicle, cell line OCI-P5x (serous), technical replicate 2 the deposit lists viability, normalised (%) = 50.8; active.
With DDX60L, rucaparib or vehicle Vehicle, cell line OCI-P5x (serous), technical replicate 3, the entry reads viability, normalised (%) = 61.7; active.
